# Data reported in the supplement of paper PMC6411743.
# ± gives the standard deviation of the averaged measurements. The list shows a part of the results, in another mix than the full data.
# Columns and labels:
# Assay in all cases: NP40-soluble protein abundance relative to vehicle (solubility fold change) (ratio); higher = more soluble protein in presence of ATP
# [1] = biological target: T1, UniProt Q96GS4
# T1 sequence (whole entry): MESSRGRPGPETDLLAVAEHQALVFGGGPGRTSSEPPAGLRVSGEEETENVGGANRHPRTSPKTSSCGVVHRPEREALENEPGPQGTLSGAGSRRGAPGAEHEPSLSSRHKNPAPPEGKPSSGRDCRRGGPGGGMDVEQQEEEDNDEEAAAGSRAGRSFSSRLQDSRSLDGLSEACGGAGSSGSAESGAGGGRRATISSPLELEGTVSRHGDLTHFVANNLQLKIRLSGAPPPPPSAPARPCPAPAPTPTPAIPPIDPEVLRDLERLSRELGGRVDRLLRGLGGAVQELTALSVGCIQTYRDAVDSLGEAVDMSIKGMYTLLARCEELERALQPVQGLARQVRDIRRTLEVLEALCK
# How it was run: (§1)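 Across three independent experiments, values are fold changes against the detergent-processed vehicle for each replicate, based on vsn-normalised intensities. The samples were Jurkat crude lysate treated with eight concentrations (0.1 to 10 mM) for 10 min at room temperature and then 3 min at 37 °C. Lysate was solubilised with 0.8% NP40 and benzonase, ultracentrifuged, and the supernatant analysed by TMT-labelled LC-MS/MS.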
# [2] = biological target: T2, UniProt Q96J84 and related entries
# T2 sequence (whole entry): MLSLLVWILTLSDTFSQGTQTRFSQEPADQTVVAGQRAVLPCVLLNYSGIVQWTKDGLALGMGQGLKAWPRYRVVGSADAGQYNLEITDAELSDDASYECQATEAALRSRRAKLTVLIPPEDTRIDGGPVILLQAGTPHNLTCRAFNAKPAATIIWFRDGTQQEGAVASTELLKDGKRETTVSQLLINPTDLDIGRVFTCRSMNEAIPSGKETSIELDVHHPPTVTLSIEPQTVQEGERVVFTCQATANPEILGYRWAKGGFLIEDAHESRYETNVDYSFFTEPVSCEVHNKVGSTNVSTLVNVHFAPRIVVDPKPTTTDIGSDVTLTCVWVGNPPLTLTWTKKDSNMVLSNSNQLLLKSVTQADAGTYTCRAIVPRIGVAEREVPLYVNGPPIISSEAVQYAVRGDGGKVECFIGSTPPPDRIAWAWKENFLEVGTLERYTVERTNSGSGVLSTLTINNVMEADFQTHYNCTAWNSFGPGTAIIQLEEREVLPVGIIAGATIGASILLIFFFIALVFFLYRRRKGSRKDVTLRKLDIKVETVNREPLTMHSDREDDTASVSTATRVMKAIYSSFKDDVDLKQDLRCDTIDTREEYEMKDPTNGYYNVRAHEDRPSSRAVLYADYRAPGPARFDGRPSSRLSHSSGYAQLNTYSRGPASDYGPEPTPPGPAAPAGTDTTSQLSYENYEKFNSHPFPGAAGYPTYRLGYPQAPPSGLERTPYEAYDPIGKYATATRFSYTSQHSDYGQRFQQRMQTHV
# How it was run: as §1
# [3] = biological target: T3, UniProt Q96JY6 and related entries
# T3 sequence (whole entry): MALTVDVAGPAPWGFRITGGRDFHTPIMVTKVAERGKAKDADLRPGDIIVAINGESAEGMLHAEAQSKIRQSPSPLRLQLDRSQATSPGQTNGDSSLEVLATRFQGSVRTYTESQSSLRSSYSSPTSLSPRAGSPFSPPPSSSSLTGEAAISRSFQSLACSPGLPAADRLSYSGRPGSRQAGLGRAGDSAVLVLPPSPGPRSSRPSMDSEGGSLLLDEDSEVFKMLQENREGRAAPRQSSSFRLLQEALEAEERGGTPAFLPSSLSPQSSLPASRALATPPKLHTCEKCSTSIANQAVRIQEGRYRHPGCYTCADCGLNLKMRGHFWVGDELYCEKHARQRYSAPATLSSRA
# How it was run: as §1
# [4] = biological target: T4, UniProt Q96KQ4
# T4 sequence (whole entry): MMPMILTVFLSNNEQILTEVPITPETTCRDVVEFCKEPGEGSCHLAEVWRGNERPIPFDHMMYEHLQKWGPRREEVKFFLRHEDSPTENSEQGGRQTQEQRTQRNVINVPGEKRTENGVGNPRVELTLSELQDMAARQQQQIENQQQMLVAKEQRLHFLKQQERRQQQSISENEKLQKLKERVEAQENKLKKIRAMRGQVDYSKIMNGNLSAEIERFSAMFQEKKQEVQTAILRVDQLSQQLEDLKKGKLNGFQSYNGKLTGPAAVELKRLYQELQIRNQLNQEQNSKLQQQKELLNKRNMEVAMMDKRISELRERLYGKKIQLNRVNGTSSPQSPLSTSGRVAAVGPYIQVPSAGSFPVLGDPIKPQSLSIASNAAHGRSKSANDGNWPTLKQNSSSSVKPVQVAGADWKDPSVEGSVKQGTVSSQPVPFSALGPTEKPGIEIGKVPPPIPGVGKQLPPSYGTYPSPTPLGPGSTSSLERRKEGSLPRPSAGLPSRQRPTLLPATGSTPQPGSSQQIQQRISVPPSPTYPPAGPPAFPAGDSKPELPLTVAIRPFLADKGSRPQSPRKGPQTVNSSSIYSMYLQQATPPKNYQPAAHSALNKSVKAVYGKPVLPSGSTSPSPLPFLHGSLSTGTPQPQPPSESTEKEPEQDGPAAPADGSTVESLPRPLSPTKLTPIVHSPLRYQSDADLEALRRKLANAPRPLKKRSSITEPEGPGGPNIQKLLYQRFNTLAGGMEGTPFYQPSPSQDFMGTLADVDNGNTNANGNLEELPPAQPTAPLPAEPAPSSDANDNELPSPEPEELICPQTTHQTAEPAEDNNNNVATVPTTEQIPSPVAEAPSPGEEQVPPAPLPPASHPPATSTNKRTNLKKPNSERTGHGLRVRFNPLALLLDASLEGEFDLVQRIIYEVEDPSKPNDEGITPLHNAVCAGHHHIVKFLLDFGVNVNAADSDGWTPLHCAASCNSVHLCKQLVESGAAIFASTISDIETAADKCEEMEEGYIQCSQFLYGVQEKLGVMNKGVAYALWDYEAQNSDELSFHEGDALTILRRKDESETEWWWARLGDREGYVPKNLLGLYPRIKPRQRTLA
# How it was run: as §1
# [5] = biological target: T5, UniProt Q96QG7 and related entries
# T5 sequence (whole entry): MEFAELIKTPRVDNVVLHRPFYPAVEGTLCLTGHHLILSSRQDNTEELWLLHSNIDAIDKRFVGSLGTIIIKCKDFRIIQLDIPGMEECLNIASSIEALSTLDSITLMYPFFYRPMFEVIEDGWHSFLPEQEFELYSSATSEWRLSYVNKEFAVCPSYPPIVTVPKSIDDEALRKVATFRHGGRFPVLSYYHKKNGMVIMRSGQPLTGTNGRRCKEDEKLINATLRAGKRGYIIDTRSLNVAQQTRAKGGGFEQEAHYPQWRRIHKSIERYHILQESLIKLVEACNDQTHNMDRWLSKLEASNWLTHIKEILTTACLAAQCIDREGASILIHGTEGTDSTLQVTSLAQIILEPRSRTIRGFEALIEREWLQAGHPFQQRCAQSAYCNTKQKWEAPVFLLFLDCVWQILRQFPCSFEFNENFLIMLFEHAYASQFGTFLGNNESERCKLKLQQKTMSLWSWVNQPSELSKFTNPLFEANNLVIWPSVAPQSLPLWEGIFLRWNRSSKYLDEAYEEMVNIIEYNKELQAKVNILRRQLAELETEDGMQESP
# How it was run: as §1
smiles,measurement,setting,value
Nc1ncnc2c1ncn2[C@@H]1O[C@H](COP(=O)(O)OP(=O)(O)OP(=O)(O)O)[C@@H](O)[C@H]1O [adenosine triphosphate],NP40-soluble protein abundance,[1]; concentration: 1mM,0.935 ± 0.048
same,NP40-soluble protein abundance,[1]; concentration: 2mM,0.953 ± 0.066
same,NP40-soluble protein abundance,[1]; concentration: 4mM,0.955 ± 0.061
same,NP40-soluble protein abundance,[1]; concentration: 6mM,0.964 ± 0.035
same,NP40-soluble protein abundance,[1]; concentration: 8mM,0.901 ± 0.056
same,NP40-soluble protein abundance,[1]; concentration: 10mM,0.902 ± 0.067
same,NP40-soluble protein abundance,[2]; concentration: 1mM,0.978 ± 0.1
same,NP40-soluble protein abundance,[2]; concentration: 2mM,1.005 ± 0.0079
same,NP40-soluble protein abundance,[2]; concentration: 4mM,1.07 ± 0.15
same,NP40-soluble protein abundance,[2]; concentration: 6mM,1.028 ± 0.0099
same,NP40-soluble protein abundance,[2]; concentration: 8mM,0.997 ± 0.062
same,NP40-soluble protein abundance,[2]; concentration: 10mM,1.05 ± 0.029
same,NP40-soluble protein abundance,[3]; concentration: 1mM,0.903 ± 0.077
same,NP40-soluble protein abundance,[3]; concentration: 2mM,0.922 ± 0.065
same,NP40-soluble protein abundance,[3]; concentration: 4mM,0.94 ± 0.05
same,NP40-soluble protein abundance,[3]; concentration: 6mM,0.95 ± 0.022
same,NP40-soluble protein abundance,[3]; concentration: 8mM,0.915 ± 0.025
same,NP40-soluble protein abundance,[3]; concentration: 10mM,0.915 ± 0.016
same,NP40-soluble protein abundance,[4]; concentration: 1mM,1.03 ± 0.064
same,NP40-soluble protein abundance,[4]; concentration: 2mM,0.99 ± 0.098
same,NP40-soluble protein abundance,[4]; concentration: 4mM,1.12 ± 0.039
same,NP40-soluble protein abundance,[4]; concentration: 6mM,1.04 ± 0.087
same,NP40-soluble protein abundance,[4]; concentration: 8mM,1.07 ± 0.12
same,NP40-soluble protein abundance,[4]; concentration: 10mM,1.05 ± 0.16
same,NP40-soluble protein abundance,[5]; concentration: 1mM,1.08 ± 0.085
same,NP40-soluble protein abundance,[5]; concentration: 2mM,1.05 ± 0.093
same,NP40-soluble protein abundance,[5]; concentration: 4mM,1.04 ± 0.14
same,NP40-soluble protein abundance,[5]; concentration: 6mM,1.03 ± 0.12
same,NP40-soluble protein abundance,[5]; concentration: 8mM,1.07 ± 0.081
same,NP40-soluble protein abundance,[5]; concentration: 10mM,1.02 ± 0.059

# Copied from the listing (2 entries):
smiles,measurement,setting,value
Nc1ncnc2c1ncn2[C@@H]1O[C@H](COP(=O)(O)OP(=O)(O)OP(=O)(O)O)[C@@H](O)[C@H]1O [adenosine triphosphate],NP40-soluble protein abundance,[3]; concentration: 10mM,0.915 ± 0.016
same,NP40-soluble protein abundance,[4]; concentration: 1mM,1.03 ± 0.064
